Results are given in words; binding and its absence hold for the method and conditions named. In cells and extracts the contact can be indirect. Some results given as binding are weak or reduced against the parent protein; the word gives no strength. Tags and fused reporters may be left off the sequences shown.

Amino acid sequences for entries named in this document (tags omitted). Residues count along the entry.
UniProt O94916, residues 1-1127: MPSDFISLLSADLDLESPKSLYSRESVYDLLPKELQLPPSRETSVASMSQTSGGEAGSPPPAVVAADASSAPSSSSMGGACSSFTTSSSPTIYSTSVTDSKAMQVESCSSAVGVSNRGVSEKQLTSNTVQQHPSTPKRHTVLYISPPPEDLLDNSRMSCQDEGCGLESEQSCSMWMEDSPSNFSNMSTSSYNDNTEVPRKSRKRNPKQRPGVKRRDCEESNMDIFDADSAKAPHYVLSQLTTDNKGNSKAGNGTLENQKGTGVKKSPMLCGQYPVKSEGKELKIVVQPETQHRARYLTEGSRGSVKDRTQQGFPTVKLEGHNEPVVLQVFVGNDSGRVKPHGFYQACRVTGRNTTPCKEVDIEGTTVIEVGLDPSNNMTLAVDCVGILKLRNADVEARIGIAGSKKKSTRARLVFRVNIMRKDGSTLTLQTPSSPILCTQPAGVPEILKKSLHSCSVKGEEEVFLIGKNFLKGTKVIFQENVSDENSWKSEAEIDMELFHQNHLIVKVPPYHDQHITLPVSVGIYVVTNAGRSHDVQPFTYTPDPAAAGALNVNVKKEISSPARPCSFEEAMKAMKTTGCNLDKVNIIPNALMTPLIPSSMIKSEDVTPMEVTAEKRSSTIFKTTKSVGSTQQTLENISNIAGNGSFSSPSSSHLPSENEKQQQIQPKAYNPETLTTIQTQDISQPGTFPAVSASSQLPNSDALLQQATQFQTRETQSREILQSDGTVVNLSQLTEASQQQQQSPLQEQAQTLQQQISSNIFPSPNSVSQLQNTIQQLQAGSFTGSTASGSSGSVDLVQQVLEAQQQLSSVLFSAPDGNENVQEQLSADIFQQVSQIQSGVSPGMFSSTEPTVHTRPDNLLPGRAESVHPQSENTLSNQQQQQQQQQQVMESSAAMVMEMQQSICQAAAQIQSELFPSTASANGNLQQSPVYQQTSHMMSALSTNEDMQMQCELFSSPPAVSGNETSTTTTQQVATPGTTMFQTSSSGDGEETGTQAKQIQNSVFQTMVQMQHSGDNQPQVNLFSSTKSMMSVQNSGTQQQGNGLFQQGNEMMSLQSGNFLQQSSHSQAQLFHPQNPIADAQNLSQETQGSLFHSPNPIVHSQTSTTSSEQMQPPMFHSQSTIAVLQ
UniProt Q04206: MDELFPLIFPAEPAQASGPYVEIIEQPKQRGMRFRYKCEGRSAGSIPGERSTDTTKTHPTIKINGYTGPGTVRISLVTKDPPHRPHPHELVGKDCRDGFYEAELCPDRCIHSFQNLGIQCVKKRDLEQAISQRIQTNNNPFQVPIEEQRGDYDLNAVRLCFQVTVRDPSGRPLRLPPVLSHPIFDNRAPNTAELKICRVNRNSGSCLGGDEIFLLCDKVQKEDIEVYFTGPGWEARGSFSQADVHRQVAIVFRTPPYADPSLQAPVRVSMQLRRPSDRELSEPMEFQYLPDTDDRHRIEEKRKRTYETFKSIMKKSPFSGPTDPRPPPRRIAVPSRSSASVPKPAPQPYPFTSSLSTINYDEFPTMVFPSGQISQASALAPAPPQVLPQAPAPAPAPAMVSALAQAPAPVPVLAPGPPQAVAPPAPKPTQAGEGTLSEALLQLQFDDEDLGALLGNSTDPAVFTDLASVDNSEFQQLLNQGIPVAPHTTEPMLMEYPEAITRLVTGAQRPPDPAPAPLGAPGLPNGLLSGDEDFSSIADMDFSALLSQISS

In this assay the target is Flag-TonEBP NT (N-terminal fragment of TonEBP generated by SARS-CoV-2 NSP5 cleavage, TonEBP 1-1127) (UniProt O94916). Briefly: co-IP.

As for YFP-p65 (from UniProt Q04206 1-551), the binding result was “binds”.

B1: GFP-IRF3 (protein, UniProt Q14653 1-427)
chain: MGTPKPRILPWLVSQLDLGQLEGVAWVNKSRTRFRIPWKHGLRQDAQQEDFGIFQAWAEATGAYVPGRDKPDLPTWKRNFRSALNRKEGLRLAEDRSKDPHDPHKIYEFVNSGVGDFSQPDTSPDTNGGGSTSDTQEDILDELLGNMVLAPLPDPGPPSLAVAPEPCPQPLRSPSLDNPTPFPNLGPSENPLKRLLVPGEEWEFEVTAFYRGRQVFQQTISCPEGLRLVGSEVGDRTLPGWPVTLPDPGMSLTDRGVMSYVRHVLSCLGGGLALWRAGQWLWAQRLGHCHTYWAVSEELLPNSGHGPDGEVPKDKEGGVFDLGPFIVDLITFTEGSGRSPRYALWFCVGESWPQDQPWTKRLVMVKVVPTCLRALVEMARVGGASSLENTVDLHISNSHPLSLTSDQYKAYLQDLVEGMDFQGPGES
For the molecule B1, the binding result was “no binding”.

These data come from article PMC11476177.
